# Measured values: US20240010722A1
# Results are given in words; binding and its absence hold for the method and conditions named. For some of these results: Binding calls can cover weak binding; strength is not graded here.
# Target: Insulin
# Experiment: polyreactivity ELISA on insulin coat
row,Binder,binding
1,"MIAB169 (antibody, V domains shown) VH: EVQLLESGGGLVQPGGSLRLSCAASGFTFSDFWMHWVRQAPGKGLEWISYISGDSGYTNYADSVKGRFTISRDNSKNTLYLQMNSLRAEDTAVYYCARDRPYYYIMDVWGKGTTVTVSS VL: DIQMTQSPSSLSASVGDRVTITCRASQSVSRSLAWYQQKPGKAPKLLIYAASSLQSGVPSRFSGSGSGTDFTLTISSLQPEDFATYYCQQYKSYPVTFGQGTKVEIK",no binding (tested: 100 nM)
2,"MIAB170 (antibody, V domains shown) VH: EVQLLESGGGLVQPGGSLRLSCAASGFTFSDFWMHWVRQAPGKGLEWISYISGDSGYTNYADSVKGRFTISRDNSKNTLYLQMNSLRAEDTAVYYCARDRPYYYWMDVWGKGTTVTVSS VL: DIQMTQSPSSLSASVGDRVTITCRASQSVSRSLAWYQQKPGKAPKLLIYAASSLQSGVPSRFSGSGSGTDFTLTISSLQPEDFATYYCQQYKSYPVTFGQGTKVEIK",no binding (tested: 100 nM)
3,"MIAB141 (antibody, V domains shown) VH: EVQLLESGGGLVQPGGSLRLSCAASGFTFSDFWMHWVRQAPGKGLEWISYISGDSGYTNYADSVKGRFTISRDNSKNTLYLQMNSLRAEDTAVYYCARDRPYYYYMDVWGKGTTVTVSS VL: DIQMTQSPSSLSASVGDRVTITCRASQSISSYLNWYQQKPGKAPKLLIYAASSLQSGVPSRFSGSGSGTDFTLTISSLQPEDFATYYCQQYKSYPVTFGQGTKVEIK",no binding (tested: 100 nM)
4,"MIAB148 (antibody, V domains shown) VH: EVQLLESGGGLVQPGGSLRLSCAASGFTFSDFWMHWVRQAPGKGLEWISYISGDSGYTNYADSVKGRFTISRDNSKNTLYLQMNSLRAEDTAVYYCARDRPYYYYMDVWGKGTTVTVSS VL: DIQMTQSPSSLSASVGDRVTITCRASQSVSRSLNWYQQKPGKAPKLLIYAASSLQSGVPSRFSGSGSGTDFTLTISSLQPEDFATYYCQQYKSYPVTFGQGTKVEIK",no binding (tested: 100 nM)
5,"MIAB151 (antibody, V domains shown) VH: EVQLLESGGGLVQPGGSLRLSCAASGFTFSDFWMHWVRQAPGKGLEWISYISGDSGYTNYADSVKGRFTISRDNSKNTLYLQMNSLRAEDTAVYYCARDRPYYYYMDVWGKGTTVTVSS VL: DIQMTQSPSSLSASVGDRVTITCRASQSISRSLNWYQQKPGKAPKLLIYAASSLQSGVPSRFSGSGSGTDFTLTISSLQPEDFATYYCQQYKSYPVTFGQGTKVEIK",no binding (tested: 100 nM)
6,"MIAB153 (antibody, V domains shown) VH: EVQLLESGGGLVQPGGSLRLSCAASGFTFSDFWMHWVRQAPGKGLEWISYISGDSGYTNYADSVKGRFTISRDNSKNTLYLQMNSLRAEDTAVYYCARDRPYYYYMDVWGKGTTVTVSS VL: DIQMTQSPSSLSASVGDRVTITCRASQSVSSSLNWYQQKPGKAPKLLIYAASSLQSGVPSRFSGSGSGTDFTLTISSLQPEDFATYYCQQYKSYPVTFGQGTKVEIK",no binding (tested: 100 nM)

# Target: cyno MAdCAM (cynomolgus)
# Experiment: ELISA on MAdCAM coat (2 ug/ml), 0-500 nM antibody
row,Binder,binding
1,"MIAB126 (antibody, V domains shown) VH: EVQLLESGGGLVQPGGSLRLSCAASGFTFDDYAMHWVRQAPGKGLEWVASITSSSAFIDYADSVKGRFTISRDNSKNTLYLQMNSLRAEDTAVYYCARERVDWMSYFDLWGQGTLVTVSS VL: EIVMTQSPATLSVSPGERATLSCRASQGISNSYLAWYQQKPGQAPRLLIYGASTRATGIPARFSGSGSGTEFTLTISSLQSEDFAVYYCQQYYTYPPTFGQGTKVEIK",binds
